In US20170027949A1, “ASSOCIATION BETWEEN 8-CYCLOPROPYL-3-[2-(3-FLUOROPHENYL)ETHYL]-7,8-DIHYDRO-3H-[1,3]OXAZINO[6,5-g][1,2,3]BENZOTRIAZINE-4,9-DIONE AND AN ACETYLCHOLINESTERASE INHIBITOR, AND PHARMACEUTICAL COMPOSITIONS CONTAINING IT” (priority 2014, published 2017):

System: 3-month-old C57BL/6 mice
Experiment: Excitatory post-synaptic potentials (EPSP) induced by electrical stimulation in alert mice (perforant pathway / dentate gyrus of the hippocampus)
Type: in vivo
Conditions: Compound S 3.0 mg/kg
[1] = 5 minutes, single p.o. dose rivastigmine 0.03 mg/kg
[2] = 10 minutes, single p.o. dose rivastigmine 0.03 mg/kg
[3] = 15 minutes, single p.o. dose rivastigmine 0.03 mg/kg
[4] = 20 minutes, single p.o. dose rivastigmine 0.03 mg/kg
[5] = 25 minutes, single p.o. dose rivastigmine 0.03 mg/kg
[6] = 30 minutes, single p.o. dose rivastigmine 0.03 mg/kg
[7] = 35 minutes, single p.o. dose rivastigmine 0.03 mg/kg
[8] = 40 minutes, single p.o. dose rivastigmine 0.03 mg/kg
[9] = 45 minutes, single p.o. dose rivastigmine 0.03 mg/kg
[10] = 50 minutes, single p.o. dose rivastigmine 0.03 mg/kg
[11] = 55 minutes, single p.o. dose rivastigmine 0.03 mg/kg
[12] = 60 minutes, single p.o. dose rivastigmine 0.03 mg/kg
[13] = 65 minutes, single p.o. dose rivastigmine 0.03 mg/kg
[14] = 70 minutes, single p.o. dose rivastigmine 0.03 mg/kg
[15] = 75 minutes, single p.o. dose rivastigmine 0.03 mg/kg
[16] = 80 minutes, single p.o. dose rivastigmine 0.03 mg/kg
[17] = 85 minutes, single p.o. dose rivastigmine 0.03 mg/kg
[18] = 90 minutes, single p.o. dose rivastigmine 0.03 mg/kg
[19] = 95 minutes, single p.o. dose rivastigmine 0.03 mg/kg
[20] = 100 minutes, single p.o. dose rivastigmine 0.03 mg/kg
[21] = 105 minutes, single p.o. dose rivastigmine 0.03 mg/kg
[22] = 110 minutes, single p.o. dose rivastigmine 0.03 mg/kg
[23] = 115 minutes, single p.o. dose rivastigmine 0.03 mg/kg
[24] = 120 minutes, single p.o. dose rivastigmine 0.03 mg/kg
[25] = 125 minutes, single p.o. dose rivastigmine 0.03 mg/kg
[26] = 130 minutes, single p.o. dose rivastigmine 0.03 mg/kg
[27] = 135 minutes, single p.o. dose rivastigmine 0.03 mg/kg
[28] = 140 minutes, single p.o. dose rivastigmine 0.03 mg/kg
[29] = 145 minutes, single p.o. dose rivastigmine 0.03 mg/kg
[30] = 150 minutes, single p.o. dose rivastigmine 0.03 mg/kg
[31] = Baseline-5 (before administration), groups rivastigmine 0.03 mg/kg
[32] = Baseline-10 (before administration), groups rivastigmine 0.03 mg/kg
[33] = Baseline-15 (before administration), groups rivastigmine 0.03 mg/kg
[34] = Baseline-20 (before administration), groups rivastigmine 0.03 mg/kg
[35] = Baseline-25 (before administration), groups rivastigmine 0.03 mg/kg
[36] = Baseline-30 (before administration), groups rivastigmine 0.03 mg/kg

## O=C1c2cc3nnn(CCc4cccc(F)c4)c(=O)c3cc2OCN1C1CC1 [Compound S, 8-cyclopropyl-3-[2-(3-fluorophenyl)ethyl]-7,8-dihydro-3H-[1,3]oxazino[6,5-g][1,2,3]benzotriazine-4,9-dione]
[1]
  post hoc analysis versus carrier, field EPSP amplitudes: 0.277
[2]
  post hoc analysis versus carrier, field EPSP amplitudes: 0.954
[3]
  post hoc analysis versus carrier, field EPSP amplitudes: 0.549
[4]
  post hoc analysis versus carrier, field EPSP amplitudes: 0.960
[5]
  post hoc analysis versus carrier, field EPSP amplitudes: 0.205
[6]
  post hoc analysis versus carrier, field EPSP amplitudes: 0.424
[7]
  post hoc analysis versus carrier, field EPSP amplitudes: 0.738
[8]
  post hoc analysis versus carrier, field EPSP amplitudes: 0.229
[9]
  post hoc analysis versus carrier, field EPSP amplitudes: 0.007
[10]
  post hoc analysis versus carrier, field EPSP amplitudes: 0.244
[11]
  post hoc analysis versus carrier, field EPSP amplitudes: 0.310
[12]
  post hoc analysis versus carrier, field EPSP amplitudes: 0.243
[13]
  post hoc analysis versus carrier, field EPSP amplitudes: 0.118
[14]
  post hoc analysis versus carrier, field EPSP amplitudes: 0.584
[15]
  post hoc analysis versus carrier, field EPSP amplitudes: 0.284
[16]
  post hoc analysis versus carrier, field EPSP amplitudes: 0.856
[17]
  post hoc analysis versus carrier, field EPSP amplitudes: 0.980
[18]
  post hoc analysis versus carrier, field EPSP amplitudes: 0.596
[19]
  post hoc analysis versus carrier, field EPSP amplitudes: 0.197
[20]
  post hoc analysis versus carrier, field EPSP amplitudes: 0.592
[21]
  post hoc analysis versus carrier, field EPSP amplitudes: 0.688
[22]
  post hoc analysis versus carrier, field EPSP amplitudes: 0.601
[23]
  post hoc analysis versus carrier, field EPSP amplitudes: 0.002
[24]
  post hoc analysis versus carrier, field EPSP amplitudes: 0.007
[25]
  post hoc analysis versus carrier, field EPSP amplitudes: 0.243
[26]
  post hoc analysis versus carrier, field EPSP amplitudes: 0.521
[27]
  post hoc analysis versus carrier, field EPSP amplitudes: 0.979
[28]
  post hoc analysis versus carrier, field EPSP amplitudes: 0.337
[29]
  post hoc analysis versus carrier, field EPSP amplitudes: 0.810
[30]
  post hoc analysis versus carrier, field EPSP amplitudes: 0.362
[31]
  post hoc analysis versus carrier, field EPSP amplitudes: 0.886
[32]
  post hoc analysis versus carrier, field EPSP amplitudes: 0.989
[33]
  post hoc analysis versus carrier, field EPSP amplitudes: 0.399
[34]
  post hoc analysis versus carrier, field EPSP amplitudes: 1.000
[35]
  post hoc analysis versus carrier, field EPSP amplitudes: 0.997
[36]
  post hoc analysis versus carrier, field EPSP amplitudes: 0.621

## CCN(C)C(=O)Oc1cccc([C@H](C)N(C)C)c1 [rivastigmine]
[1]
  post hoc analysis versus carrier, field EPSP amplitudes: 0.725
[2]
  post hoc analysis versus carrier, field EPSP amplitudes: 0.939
[3]
  post hoc analysis versus carrier, field EPSP amplitudes: 0.833
[4]
  post hoc analysis versus carrier, field EPSP amplitudes: 0.861
[5]
  post hoc analysis versus carrier, field EPSP amplitudes: 0.639
[6]
  post hoc analysis versus carrier, field EPSP amplitudes: 0.853
[7]
  post hoc analysis versus carrier, field EPSP amplitudes: 0.894
[8]
  post hoc analysis versus carrier, field EPSP amplitudes: 0.241
[9]
  post hoc analysis versus carrier, field EPSP amplitudes: 0.028
[10]
  post hoc analysis versus carrier, field EPSP amplitudes: 0.660
[11]
  post hoc analysis versus carrier, field EPSP amplitudes: 0.230
[12]
  post hoc analysis versus carrier, field EPSP amplitudes: 0.225
[13]
  post hoc analysis versus carrier, field EPSP amplitudes: 0.014
[14]
  post hoc analysis versus carrier, field EPSP amplitudes: 0.530
[15]
  post hoc analysis versus carrier, field EPSP amplitudes: 0.254
[16]
  post hoc analysis versus carrier, field EPSP amplitudes: 0.904
[17]
  post hoc analysis versus carrier, field EPSP amplitudes: 0.972
[18]
  post hoc analysis versus carrier, field EPSP amplitudes: 0.356
[19]
  post hoc analysis versus carrier, field EPSP amplitudes: 0.526
[20]
  post hoc analysis versus carrier, field EPSP amplitudes: 0.971
[21]
  post hoc analysis versus carrier, field EPSP amplitudes: 0.558
[22]
  post hoc analysis versus carrier, field EPSP amplitudes: 0.632
[23]
  post hoc analysis versus carrier, field EPSP amplitudes: 0.007
[24]
  post hoc analysis versus carrier, field EPSP amplitudes: 0.163
[25]
  post hoc analysis versus carrier, field EPSP amplitudes: 0.251
[26]
  post hoc analysis versus carrier, field EPSP amplitudes: 0.311
[27]
  post hoc analysis versus carrier, field EPSP amplitudes: 0.536
[28]
  post hoc analysis versus carrier, field EPSP amplitudes: 0.323
[29]
  post hoc analysis versus carrier, field EPSP amplitudes: 0.810
[30]
  post hoc analysis versus carrier, field EPSP amplitudes: 0.413
[31]
  post hoc analysis versus carrier, field EPSP amplitudes: 0.705
[32]
  post hoc analysis versus carrier, field EPSP amplitudes: 0.869
[33]
  post hoc analysis versus carrier, field EPSP amplitudes: 0.135
[34]
  post hoc analysis versus carrier, field EPSP amplitudes: 0.985
[35]
  post hoc analysis versus carrier, field EPSP amplitudes: 0.987
[36]
  post hoc analysis versus carrier, field EPSP amplitudes: 0.681
